According to patent publication US10588982B2, “Site-specific covalent chemical ligation to monoclonal and polyclonal immunoglobulin” (The Regents of the University of California, priority 2015, dated 2020):

Experiment: HABA-avidin biotin quantification of biotinylated antibody conjugates

Rituximab-DS
# of biotin (mAb-DS, biotin per antibody): 2.1

Bevacizumab-NHS
# of biotin (mAb-NHS, biotin per antibody): 4.47

Rituximab-NHS
# of biotin (mAb-NHS, biotin per antibody): 6.58

Rituximab: clinically approved monoclonal antibody
# of biotin (mAb, unconjugated): 0

Bevacizumab: clinically approved monoclonal antibody
# of biotin (mAb, unconjugated): 0

Bevacizumab-DS
# of biotin (mAb-DS, biotin per antibody): 2.3

O=C1N[C@H]2[C@H](CS[C@H]2CCCCC(=O)ON2C(=O)CC(S(=O)(=O)[O-])C2=O)N1.[Na+] (stereo partly shown) [NH2-reactive biotin, sulfo-NHS-biotin]
average biotin per antibody ratio (maleimide (MDS) conjugates TMDS, BMDS, RMDS, NMDS): 5-10
